No constants are given. Whether binding was seen depends on the method and setting. For some of these results: In cells and extracts the contact can be indirect. Some entries that bind do so weakly or less than the wild type. Tags and fused reporters may be left off the sequences shown.

Amino acid sequences for entries named in this document (tags omitted). A change or cut given only in a name is not applied to a line headed by its entry. Chains listed by the source or under a name are the forms on record and can include a tag or linker.
UniProt Q99527: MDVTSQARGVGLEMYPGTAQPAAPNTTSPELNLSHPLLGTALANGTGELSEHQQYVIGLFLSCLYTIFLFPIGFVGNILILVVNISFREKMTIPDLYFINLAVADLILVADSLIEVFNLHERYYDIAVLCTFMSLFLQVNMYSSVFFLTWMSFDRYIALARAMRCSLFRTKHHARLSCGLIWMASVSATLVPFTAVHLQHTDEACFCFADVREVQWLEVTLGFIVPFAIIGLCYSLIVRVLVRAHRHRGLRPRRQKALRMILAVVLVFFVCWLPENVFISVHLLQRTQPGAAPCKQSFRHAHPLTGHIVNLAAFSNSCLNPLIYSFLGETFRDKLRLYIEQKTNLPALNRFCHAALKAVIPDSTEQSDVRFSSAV
GPER(mut)/venus-tagged (GPER with fifteen alanine replacements in H6, H7 and H8) (Q99527, form named): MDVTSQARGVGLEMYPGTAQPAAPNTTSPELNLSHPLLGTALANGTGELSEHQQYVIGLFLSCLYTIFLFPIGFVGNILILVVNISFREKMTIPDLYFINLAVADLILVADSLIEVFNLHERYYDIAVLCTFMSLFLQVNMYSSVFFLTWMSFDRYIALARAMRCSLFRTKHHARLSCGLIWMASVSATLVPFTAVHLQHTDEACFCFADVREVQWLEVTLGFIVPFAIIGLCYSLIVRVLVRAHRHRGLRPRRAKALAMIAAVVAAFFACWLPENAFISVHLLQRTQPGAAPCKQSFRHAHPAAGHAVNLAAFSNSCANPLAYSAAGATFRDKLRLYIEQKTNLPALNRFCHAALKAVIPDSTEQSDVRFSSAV

One test deals with T1, HA-tagged FSHR (UniProt P23945).
T1 sequence: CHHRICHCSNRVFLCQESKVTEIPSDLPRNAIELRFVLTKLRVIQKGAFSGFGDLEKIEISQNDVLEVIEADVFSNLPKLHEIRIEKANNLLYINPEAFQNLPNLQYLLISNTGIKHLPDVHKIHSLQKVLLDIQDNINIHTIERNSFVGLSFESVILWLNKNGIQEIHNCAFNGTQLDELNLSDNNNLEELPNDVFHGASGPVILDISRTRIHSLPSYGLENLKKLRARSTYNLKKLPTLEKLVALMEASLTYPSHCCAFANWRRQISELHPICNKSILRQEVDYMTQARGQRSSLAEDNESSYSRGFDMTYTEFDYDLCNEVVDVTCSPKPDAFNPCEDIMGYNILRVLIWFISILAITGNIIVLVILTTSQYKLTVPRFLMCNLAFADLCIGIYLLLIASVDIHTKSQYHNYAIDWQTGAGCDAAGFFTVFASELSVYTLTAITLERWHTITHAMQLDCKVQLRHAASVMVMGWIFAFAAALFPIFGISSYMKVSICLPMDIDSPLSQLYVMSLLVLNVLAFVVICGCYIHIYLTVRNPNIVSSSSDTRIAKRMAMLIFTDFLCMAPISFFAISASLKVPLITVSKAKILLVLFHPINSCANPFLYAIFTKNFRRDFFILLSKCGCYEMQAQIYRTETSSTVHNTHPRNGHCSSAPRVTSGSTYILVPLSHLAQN
Kind of test: photo-activated localization microscopy with photoactivatable dyes.

In test [1] the target is T2, FSHR/rluc (follicle stimulating hormone receptor, rluc-tagged BRET donor) (UniProt P23945).
T2 sequence: T1 sequence
The experiment in a line: FRET or BRET. (In BRET a luciferase serves as donor, and the signal depends on an acceptor being close.)

Another test has as its target T3, HA-tagged FSHR, P23945.
T3 chain: T1 sequence
Kind of test: photo-activated localization microscopy with photoactivatable dyes. Conditions: remark: other sources report otherwise.

“FLAG-tagged GPER (from UniProt Q99527 1-375) (receptor)”: the binding entry with HA-tagged FSHR is on record as “binds”. As for “GPER/venus (G protein coupled estrogen receptor, venus-tagged BRET acceptor) (from UniProt Q99527 1-375)”, in test [1], the binding entry is on record as “binds”. With “GPER(mut)/venus-tagged (GPER with fifteen alanine replacements in H6, H7 and H8) (from UniProt Q99527 1-375) (receptor)”, the binding result in test [1] is “no binding”.

B1: HA-tagged FSHR, P23945 18-695 (receptor)
chain: T1 sequence
In the case of B1, the binding result with HA-tagged FSHR, P23945 is “binds”.

Values taken from doi:10.1101/2020.04.21.053348.
